Some of the results follow.
Compound: Cc1cc(ccc1-c1ccccc1)C(=O)N1CCCN(CC1)C(=O)CCl [compound 10]
Experiment: probe-labelled cysteine peptide fold change vs DMSO (competition) (log2 fold change); higher = less target engagement (more negative = stronger competition)
Details: 10 µM; THP-1; incubation time: 4 h
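Also: competitive profiling in live THP-1 cells: cysteine peptides tagged with an iodoacetamide desthiobiotin (IA-DTB) probe, intensity after compound treatment relative to DMSO-treated cells.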

Compared with “NCAPH_Q15003_309_APLQQCAEDR (UniProt Q15003)”, “MYO9B_Q13459_152_QQADFDDLCNLPELTEGNLLK (UniProt Q13459)” is higher in “probe-labelled cysteine peptide fold change” value: -0.323 for the first, -0.132 for the second.

Going from “NADK_O95544_69_SLHGPCPVTTFGPK (UniProt O95544)” to “NCBP1_Q09161_332_TCAAQLVSYPGK (UniProt Q09161)”, the “probe-labelled cysteine peptide fold change” value falls from -0.122 to -0.13.

First: NCALD_P61601_38_DCPSGHLSMEEFK (UniProt P61601)
Second: MZF1_P28698_323_SEQDPTDEDPCR (UniProt P28698)
The “probe-labelled cysteine peptide fold change” value of the first is higher: 0.158 for the first, -0.0388 for the second.

Going from “NANP_Q8TBE9_49_YHYKEEAEIICDK (UniProt Q8TBE9)” to “NAP1L4_Q99733_77_CAHIEAK (UniProt Q99733)”, the “probe-labelled cysteine peptide fold change” value rises from 0.0417 to 0.0717.

First: NAPA_P54920_212+215_AALCHFCIDMLNAK (UniProt P54920)
Second: NARS_O43776_342_HLAEYTHVEAECPFLTFDDLLNR (UniProt O43776)
The “probe-labelled cysteine peptide fold change” value of the first is lower: 0.248 for the first, 0.59 for the second.

Going from “NAP1L1_P55209_88_CAQIEAK (UniProt P55209)” to “NBEAL2_Q6ZNJ1_1491_GQVFSVLTQLGASATLVRPPDCIKR (UniProt Q6ZNJ1)”, the “probe-labelled cysteine peptide fold change” value falls from -0.0583 to -0.22.

Compared with “MYO6_Q9UM54_587_HFAGAVCYETTQFVEK (UniProt Q9UM54)”, “NAA15_Q9BXJ9_529_HFIEITDDQFDFHTYCMR (UniProt Q9BXJ9)” is lower in “probe-labelled cysteine peptide fold change” value: 0.108 for the first, -0.0377 for the second.

First: NCAM2_O15394_232_GEEMTFSCR (UniProt O15394)
Second: NAA35_Q5VZE5_420_DCIDSFVTHCVRPFCSLIQIHGHNR (UniProt Q5VZE5)
The “probe-labelled cysteine peptide fold change” value of the first is higher: -0.145 for the first, -0.188 for the second.

First: NAPRT_Q6XQN6_254_AQVWLEQVCAHLGLGVQEPHPGER (UniProt Q6XQN6)
Second: NCBP1_Q09161_332_KTCAAQLVSYPGK (UniProt Q09161)
The “probe-labelled cysteine peptide fold change” value of the first is higher: 0.0383 for the first, -0.0591 for the second.

Going from “NCAPD3_P42695_361_ILLQHICAK (UniProt P42695)” to “NAA25_Q14CX7_381_VFVDLLPATQCTK (UniProt Q14CX7)”, the “probe-labelled cysteine peptide fold change” value rises from -0.282 to -0.214.

Going from “NAA15_Q9BXJ9_214_EALEHLCTYEK (UniProt Q9BXJ9)” to “NCBP1_Q09161_261_HILRPYLAFDSILCEALQHNLPPFTPPPHTEDSVYPMPR (UniProt Q09161)”, the “probe-labelled cysteine peptide fold change” value falls from 0.152 to 0.0928.

First: NCF2_P19878_514_VFVEDCATTDLESTR (UniProt P19878)
Second: NCK1_P16333_340_ETVYCIGQR (UniProt P16333)
The “probe-labelled cysteine peptide fold change” value of the first is lower: -0.00446 for the first, 0.0463 for the second.

Compared with “NAA40_Q86UY6_59_NGLNVSIECK (UniProt Q86UY6)”, “NAA16_Q6N069_529_HFFEITDDQFDFHTYCMR (UniProt Q6N069)” is higher in “probe-labelled cysteine peptide fold change” value: 0.0107 for the first, 0.0727 for the second.

First: MYO6_Q9UM54_1110_DTINTSCDIELLAACR (UniProt Q9UM54)
Second: NACC2_Q96BF6_441_ESEMNVIAADMCTNAR (UniProt Q96BF6)
The “probe-labelled cysteine peptide fold change” value of the first is lower: 0.111 for the first, 0.172 for the second.

Going from “NCAPG_Q9BPX3_177_DDECPVVNAYATLIENDSNPEVR (UniProt Q9BPX3)” to “NCAPG_Q9BPX3_509_EALENCITLQDFNR (UniProt Q9BPX3)”, the “probe-labelled cysteine peptide fold change” value rises from -0.241 to 0.192.

Compared with “NADSYN1_Q6IA69_338_YHSPEEEISLGPACWLWDFLRR (UniProt Q6IA69)”, “MYO6_Q9UM54_252_LCAGASEDIR (UniProt Q9UM54)” is lower in “probe-labelled cysteine peptide fold change” value: 0.151 for the first, 0.134 for the second.

Going from “NBN_O60934_31_NCAILIENDQSISR (UniProt O60934)” to “NANP_Q8TBE9_49_EEAEIICDK (UniProt Q8TBE9)”, the “probe-labelled cysteine peptide fold change” value falls from 0.173 to 0.0178.

Compared with “NBEAL2_Q6ZNJ1_245_GPAPDPCLVPLALEALVGAVHVLHASR (UniProt Q6ZNJ1)”, “MYOF_Q9NZM1_1131_HSATTVFGANTPIVSCNFDR (UniProt Q9NZM1)” is higher in “probe-labelled cysteine peptide fold change” value: -0.141 for the first, -0.0575 for the second.

Compared with “MYO18A_Q92614_811_GASFEELCHNYTQDR (UniProt Q92614)”, “MYOF_Q9NZM1_1574_GLELQPQDNNGLCDPYIK (UniProt Q9NZM1)” is lower in “probe-labelled cysteine peptide fold change” value: 0.0779 for the first, 0.0635 for the second.
